Source: paper PMC8584161
These are yes or no findings as the source states them, for the method shown. Binding seen in cells or lysates may run through a third protein. Some entries that bind do so weakly or less than the wild type. One block for each binder: values may come before it.

Key:
[1] = molecular target: T1, Numb4 isoform of NUMB (UniProt P49757); assay: co-IP; 293T cells co-expressing Numb4 and MCT1 or MCT4; 500 ug lysate; anti-NUMB, anti-MCT1 or anti-MCT4 antibody on protein A magnetic beads; Western blot
T1 sequence: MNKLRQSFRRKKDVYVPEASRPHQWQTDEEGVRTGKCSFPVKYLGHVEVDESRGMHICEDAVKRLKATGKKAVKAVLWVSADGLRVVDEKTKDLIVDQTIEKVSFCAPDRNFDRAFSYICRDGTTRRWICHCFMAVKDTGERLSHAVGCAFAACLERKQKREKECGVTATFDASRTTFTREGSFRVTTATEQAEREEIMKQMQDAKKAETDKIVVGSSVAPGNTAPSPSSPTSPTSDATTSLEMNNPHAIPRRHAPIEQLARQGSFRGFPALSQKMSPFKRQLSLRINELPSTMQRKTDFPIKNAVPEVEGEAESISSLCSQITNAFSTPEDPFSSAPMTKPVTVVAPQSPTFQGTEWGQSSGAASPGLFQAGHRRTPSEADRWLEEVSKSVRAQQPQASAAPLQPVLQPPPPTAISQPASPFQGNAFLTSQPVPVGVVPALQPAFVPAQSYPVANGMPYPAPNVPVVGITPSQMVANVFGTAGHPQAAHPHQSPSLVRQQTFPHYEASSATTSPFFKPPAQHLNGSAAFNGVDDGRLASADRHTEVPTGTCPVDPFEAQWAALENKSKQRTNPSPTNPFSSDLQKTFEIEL

[2] = molecular target: T2, Monocarboxylate transporter 4 (MCT4, SLC16A3) (UniProt O15427); assay: as above
T2 sequence: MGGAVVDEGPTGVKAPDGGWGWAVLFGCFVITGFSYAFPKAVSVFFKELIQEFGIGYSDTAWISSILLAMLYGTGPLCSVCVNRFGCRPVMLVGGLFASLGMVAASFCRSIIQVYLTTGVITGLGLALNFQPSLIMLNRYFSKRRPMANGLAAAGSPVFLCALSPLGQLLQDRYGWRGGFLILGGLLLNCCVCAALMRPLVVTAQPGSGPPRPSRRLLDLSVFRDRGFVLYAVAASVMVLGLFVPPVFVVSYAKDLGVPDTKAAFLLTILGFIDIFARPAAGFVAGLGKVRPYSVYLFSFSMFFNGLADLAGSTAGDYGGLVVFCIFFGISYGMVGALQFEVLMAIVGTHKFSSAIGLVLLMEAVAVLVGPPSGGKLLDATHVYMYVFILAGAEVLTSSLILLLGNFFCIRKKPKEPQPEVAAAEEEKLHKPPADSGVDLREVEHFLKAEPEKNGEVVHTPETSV

[3] = molecular target: T3, Monocarboxylate transporter 1 (MCT1, SLC16A1) (UniProt P53985); assay: as above
T3 sequence: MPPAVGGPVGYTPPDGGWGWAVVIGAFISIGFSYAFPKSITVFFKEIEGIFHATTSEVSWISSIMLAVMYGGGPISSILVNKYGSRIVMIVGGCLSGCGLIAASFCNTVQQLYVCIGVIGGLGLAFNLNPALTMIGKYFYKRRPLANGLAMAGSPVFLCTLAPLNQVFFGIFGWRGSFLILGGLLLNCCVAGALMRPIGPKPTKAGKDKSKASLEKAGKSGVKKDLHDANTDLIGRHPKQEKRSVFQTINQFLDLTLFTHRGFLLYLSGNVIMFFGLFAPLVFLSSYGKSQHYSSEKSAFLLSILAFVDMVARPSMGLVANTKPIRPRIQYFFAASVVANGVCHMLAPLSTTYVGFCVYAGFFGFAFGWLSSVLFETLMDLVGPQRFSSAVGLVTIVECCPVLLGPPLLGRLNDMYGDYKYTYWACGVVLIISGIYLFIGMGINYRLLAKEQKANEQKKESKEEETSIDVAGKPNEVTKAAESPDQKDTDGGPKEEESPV

[4] = molecular target: T4, MCT4 in 293T cells expressing ubiquitin and Numb4 (human (endogenous in 293T)) (UniProt O15427); assay: co-IP; 293T cells expressing ubiquitin and Numb4; 500 ug lysate; anti-MCT4 antibody on protein A magnetic beads; Western blot
T4 sequence: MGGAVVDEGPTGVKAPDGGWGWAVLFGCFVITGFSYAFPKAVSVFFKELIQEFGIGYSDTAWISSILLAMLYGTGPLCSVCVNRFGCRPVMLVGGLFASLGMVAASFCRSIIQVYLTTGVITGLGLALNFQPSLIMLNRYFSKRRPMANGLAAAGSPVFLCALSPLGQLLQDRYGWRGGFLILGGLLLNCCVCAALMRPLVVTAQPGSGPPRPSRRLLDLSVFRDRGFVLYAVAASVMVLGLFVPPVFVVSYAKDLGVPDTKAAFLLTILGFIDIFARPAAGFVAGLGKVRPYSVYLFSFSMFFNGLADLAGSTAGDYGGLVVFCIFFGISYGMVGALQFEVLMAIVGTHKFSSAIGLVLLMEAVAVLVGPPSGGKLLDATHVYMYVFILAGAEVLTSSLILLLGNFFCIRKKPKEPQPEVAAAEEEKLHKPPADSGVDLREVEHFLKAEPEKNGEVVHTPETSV

[5] = molecular target: T5, MCT1 in SAS cells (human (endogenous in SAS)) (UniProt P53985); assay: co-IP; SAS cells expressing ubiquitin and Numb4; 500 ug lysate; anti-MCT1 antibody on protein A magnetic beads; Western blot
T5 sequence: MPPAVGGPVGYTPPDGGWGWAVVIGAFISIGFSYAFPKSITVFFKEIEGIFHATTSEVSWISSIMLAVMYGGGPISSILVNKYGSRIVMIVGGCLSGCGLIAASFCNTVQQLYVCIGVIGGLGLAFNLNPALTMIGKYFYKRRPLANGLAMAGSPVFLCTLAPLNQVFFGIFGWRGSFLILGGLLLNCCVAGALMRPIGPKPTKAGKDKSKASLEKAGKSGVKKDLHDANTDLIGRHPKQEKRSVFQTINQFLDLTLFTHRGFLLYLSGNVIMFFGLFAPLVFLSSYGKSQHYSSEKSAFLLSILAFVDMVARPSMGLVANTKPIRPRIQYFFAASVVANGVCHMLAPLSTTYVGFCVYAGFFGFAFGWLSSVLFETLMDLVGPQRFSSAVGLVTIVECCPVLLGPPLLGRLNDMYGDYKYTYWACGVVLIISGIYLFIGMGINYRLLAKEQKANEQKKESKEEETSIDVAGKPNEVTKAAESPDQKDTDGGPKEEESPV

binding [1]: binds
B1: Monocarboxylate transporter 4 (MCT4, SLC16A3) (protein, UniProt O15427 1-465)
chain: MGGAVVDEGPTGVKAPDGGWGWAVLFGCFVITGFSYAFPKAVSVFFKELIQEFGIGYSDTAWISSILLAMLYGTGPLCSVCVNRFGCRPVMLVGGLFASLGMVAASFCRSIIQVYLTTGVITGLGLALNFQPSLIMLNRYFSKRRPMANGLAAAGSPVFLCALSPLGQLLQDRYGWRGGFLILGGLLLNCCVCAALMRPLVVTAQPGSGPPRPSRRLLDLSVFRDRGFVLYAVAASVMVLGLFVPPVFVVSYAKDLGVPDTKAAFLLTILGFIDIFARPAAGFVAGLGKVRPYSVYLFSFSMFFNGLADLAGSTAGDYGGLVVFCIFFGISYGMVGALQFEVLMAIVGTHKFSSAIGLVLLMEAVAVLVGPPSGGKLLDATHVYMYVFILAGAEVLTSSLILLLGNFFCIRKKPKEPQPEVAAAEEEKLHKPPADSGVDLREVEHFLKAEPEKNGEVVHTPETSV

binding [1]: binds
B2: Monocarboxylate transporter 1 (MCT1, SLC16A1) (protein, UniProt P53985 1-500)
chain: MPPAVGGPVGYTPPDGGWGWAVVIGAFISIGFSYAFPKSITVFFKEIEGIFHATTSEVSWISSIMLAVMYGGGPISSILVNKYGSRIVMIVGGCLSGCGLIAASFCNTVQQLYVCIGVIGGLGLAFNLNPALTMIGKYFYKRRPLANGLAMAGSPVFLCTLAPLNQVFFGIFGWRGSFLILGGLLLNCCVAGALMRPIGPKPTKAGKDKSKASLEKAGKSGVKKDLHDANTDLIGRHPKQEKRSVFQTINQFLDLTLFTHRGFLLYLSGNVIMFFGLFAPLVFLSSYGKSQHYSSEKSAFLLSILAFVDMVARPSMGLVANTKPIRPRIQYFFAASVVANGVCHMLAPLSTTYVGFCVYAGFFGFAFGWLSSVLFETLMDLVGPQRFSSAVGLVTIVECCPVLLGPPLLGRLNDMYGDYKYTYWACGVVLIISGIYLFIGMGINYRLLAKEQKANEQKKESKEEETSIDVAGKPNEVTKAAESPDQKDTDGGPKEEESPV

binding [2]: binds
binding [3]: binds
binding [4]: binds
B3: Numb4 isoform of NUMB (protein, UniProt P49757-4 1-592)
chain: MNKLRQSFRRKKDVYVPEASRPHQWQTDEEGVRTGKCSFPVKYLGHVEVDESRGMHICEDAVKRLKATGKKAVKAVLWVSADGLRVVDEKTKDLIVDQTIEKVSFCAPDRNFDRAFSYICRDGTTRRWICHCFMAVKDTGERLSHAVGCAFAACLERKQKREKECGVTATFDASRTTFTREGSFRVTTATEQAEREEIMKQMQDAKKAETDKIVVGSSVAPGNTAPSPSSPTSPTSDATTSLEMNNPHAIPRRHAPIEQLARQGSFRGFPALSQKMSPFKRQLSLRINELPSTMQRKTDFPIKNAVPEVEGEAESISSLCSQITNAFSTPEDPFSSAPMTKPVTVVAPQSPTFQGTEWGQSSGAASPGLFQAGHRRTPSEADRWLEEVSKSVRAQQPQASAAPLQPVLQPPPPTAISQPASPFQGNAFLTSQPVPVGVVPALQPAFVPAQSYPVANGMPYPAPNVPVVGITPSQMVANVFGTAGHPQAAHPHQSPSLVRQQTFPHYEASSATTSPFFKPPAQHLNGSAAFNGVDDGRLASADRHTEVPTGTCPVDPFEAQWAALENKSKQRTNPSPTNPFSSDLQKTFEIEL

binding [5]: binds
B4: Numb4 isoform of NUMB (expressed in SAS cells) (protein, UniProt P49757-4 1-592)
chain: MNKLRQSFRRKKDVYVPEASRPHQWQTDEEGVRTGKCSFPVKYLGHVEVDESRGMHICEDAVKRLKATGKKAVKAVLWVSADGLRVVDEKTKDLIVDQTIEKVSFCAPDRNFDRAFSYICRDGTTRRWICHCFMAVKDTGERLSHAVGCAFAACLERKQKREKECGVTATFDASRTTFTREGSFRVTTATEQAEREEIMKQMQDAKKAETDKIVVGSSVAPGNTAPSPSSPTSPTSDATTSLEMNNPHAIPRRHAPIEQLARQGSFRGFPALSQKMSPFKRQLSLRINELPSTMQRKTDFPIKNAVPEVEGEAESISSLCSQITNAFSTPEDPFSSAPMTKPVTVVAPQSPTFQGTEWGQSSGAASPGLFQAGHRRTPSEADRWLEEVSKSVRAQQPQASAAPLQPVLQPPPPTAISQPASPFQGNAFLTSQPVPVGVVPALQPAFVPAQSYPVANGMPYPAPNVPVVGITPSQMVANVFGTAGHPQAAHPHQSPSLVRQQTFPHYEASSATTSPFFKPPAQHLNGSAAFNGVDDGRLASADRHTEVPTGTCPVDPFEAQWAALENKSKQRTNPSPTNPFSSDLQKTFEIEL
